The values that follow come from article PMC8741850.

Chains of the proteins cited; added tags and fusions are not shown. Lines headed by an entry give the natural chain unless they say otherwise; changes in a name come on top.
UniProt P27008: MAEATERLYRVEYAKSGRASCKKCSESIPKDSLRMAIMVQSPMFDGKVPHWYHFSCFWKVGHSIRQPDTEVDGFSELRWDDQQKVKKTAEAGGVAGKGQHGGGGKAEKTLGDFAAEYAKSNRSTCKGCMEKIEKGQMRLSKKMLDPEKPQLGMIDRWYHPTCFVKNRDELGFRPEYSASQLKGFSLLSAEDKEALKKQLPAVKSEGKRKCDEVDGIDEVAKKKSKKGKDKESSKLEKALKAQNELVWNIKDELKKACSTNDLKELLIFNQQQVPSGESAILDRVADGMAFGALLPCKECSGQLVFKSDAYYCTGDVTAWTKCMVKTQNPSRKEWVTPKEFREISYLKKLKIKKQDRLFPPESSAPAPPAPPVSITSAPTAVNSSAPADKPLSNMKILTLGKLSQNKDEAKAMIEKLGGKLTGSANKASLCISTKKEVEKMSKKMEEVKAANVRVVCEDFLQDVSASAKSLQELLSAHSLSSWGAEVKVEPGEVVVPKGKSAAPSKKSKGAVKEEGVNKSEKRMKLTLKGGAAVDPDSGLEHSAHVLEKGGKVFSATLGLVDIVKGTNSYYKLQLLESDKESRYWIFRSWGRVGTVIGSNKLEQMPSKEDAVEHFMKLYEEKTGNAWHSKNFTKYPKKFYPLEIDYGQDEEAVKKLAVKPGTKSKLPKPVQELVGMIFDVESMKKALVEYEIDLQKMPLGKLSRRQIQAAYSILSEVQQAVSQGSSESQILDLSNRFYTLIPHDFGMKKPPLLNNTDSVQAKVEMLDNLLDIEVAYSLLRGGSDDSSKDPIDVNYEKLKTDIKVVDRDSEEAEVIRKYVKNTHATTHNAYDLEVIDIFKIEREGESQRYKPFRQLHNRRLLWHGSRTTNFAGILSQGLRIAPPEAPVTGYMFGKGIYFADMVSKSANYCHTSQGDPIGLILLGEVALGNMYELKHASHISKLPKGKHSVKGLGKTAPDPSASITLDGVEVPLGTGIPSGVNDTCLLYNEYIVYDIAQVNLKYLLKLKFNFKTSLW

No constants are given. Whether binding was seen depends on the method and setting. Binding seen in cells or lysates may run through a third protein. Some results given as binding are weak or reduced against the parent protein; the word gives no strength.

Test [1] concerns the target T1, CCAAT/enhancer-binding protein beta (C/EBPβ), endogenous (rat (endogenous in NRCMs and rat heart)) (UniProt P21272).
T1 sequence: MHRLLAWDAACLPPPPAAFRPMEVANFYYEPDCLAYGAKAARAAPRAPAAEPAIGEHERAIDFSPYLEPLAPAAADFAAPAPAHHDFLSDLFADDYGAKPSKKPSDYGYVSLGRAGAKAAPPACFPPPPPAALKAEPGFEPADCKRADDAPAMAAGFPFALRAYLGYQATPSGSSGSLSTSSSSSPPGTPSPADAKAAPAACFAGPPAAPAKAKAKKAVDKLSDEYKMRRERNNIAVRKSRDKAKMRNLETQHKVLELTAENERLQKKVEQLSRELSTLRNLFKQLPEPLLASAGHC
Put plainly: co-IP; NRCM lysates precipitated with anti-C/EBPβ antibody, blots for PARP1, PAR or SUMO1; cells infected or transfected with WT PARP1 or E988K, siPARP1, 3AB (20 μmol/L), PE (100 μmol/L).

Test [2] has as its target T1, CCAAT/enhancer-binding protein beta (C/EBPβ), endogenous (rat (endogenous in NRCMs and rat heart)). Put plainly: co-IP; rat heart tissue lysate precipitated with anti-C/EBPβ antibody, Western blot; Sham, AAC, AAC with 3AB. For orientation: Immunoblotting shows a protein as a band on a membrane.

On to “PARP1 (E988K) mutant (from UniProt P27008 1-1014) (enzyme)”, for which the binding result in test [1] is reported as “binds”. Consider “PARP1, wild type, overexpressed in NRCMs (Ad-PARP1) (from UniProt P27008 1-1014) (enzyme)”, for which the binding result in test [1] is listed as “binds”. Turning to “Poly(ADP-ribose) polymerase-1 (PARP1), endogenous (from UniProt P27008 1-1014) (enzyme)”, the binding entry in test [2] and in test [1] was “binds” each time.
